One molecule from article PMC11655556 can be followed below.

Results are given in words; binding and its absence hold for the method and conditions named. In cells and extracts the contact can be indirect. Here binding means that the protein was enriched with, or labelled near, the bait; the list need not be complete.

The experiment addresses PDSS2-Del2 (prenyl diphosphate synthase subunit 2 with exon 2 deletion) (human). In words: affinity purification with mass spectrometry; Co-IP with PDSS2 antibodies from lysates of 8024 and Huh7 cells with PDSS2-Del2 overexpression; pull-down samples analysed by mass spectrometry.

B1: SKOR1 (SKI family transcriptional corepressor 1) (protein, UniProt P84550 1-965)
chain: MALLCGLGQVTLRIWVSLPSQSENGIGFLAARAFLRSGGMEALTTQLGPGREGSSSPNSKQELQPYSGSSALKPNQVGETSLYGVPIVSLVIDGQERLCLAQISNTLLKNYSYNEIHNRRVALGITCVQCTPVQLEILRRAGAMPISSRRCGMITKREAERLCKSFLGEHKPPKLPENFAFDVVHECAWGSRGSFIPARYNSSRAKCIKCGYCSMYFSPNKFIFHSHRTPDAKYTQPDAANFNSWRRHLKLSDKSATDELSHAWEDVKAMFNGGTRKRTFSLQGGGGGGANGGSGGQGKGGAGGGGGGGPGCGAEMAPGPPPHKSLRCGEDEAAGPPGPPPPHPQRGLGLATGASGPAGPGGPGGGAGVRSYPVIPVPSKGFGLLQKLPPPLFPHPYGFPTAFGLCPKKDDPVLGAGEPKGGPGTGSGGGGAGTGGGAGGPGASHLPPGAGAGPGGGAMFWGHQPSGAAKDAAAVAAAAAAATVYPTFPMFWPAAGSLPVPSYPAAQSQAKAVAAAVAAAAAAAAAAAGSGAPEPLDGAEPAKESGLGAEERCPSALSRGPLDEDGTDEALPPPLAPLPPPPPPPARKGSYVSAFRPVVKDTESIAKLYGSAREAYGAGPARGPGPGAGSGGYVSPDFLSEGSSSYNSASPDVDTADEPEVDVESNRFPDDEDAQEETEPSAPSAGGGPDGEQPTGPPSATSSGADGPANSPDGGSPRPRRRLGPPPAGRPAFGDLAAEDLVRRPERSPPSGGGGYELREPCGPLGGPAPAKVFAPERDEHVKSAAVALGPAASYVCTPEAHEPDKEDNHSPADDLETRKSYPDQRSISQPSPANTDRGEDGLTLDVTGTHLVEKDIENLAREELQKLLLEQMELRKKLEREFQSLKDNFQDQMKRELAYREEMVQQLQIVRDTLCNELDQERKARYAIQQKLKEAHDALHHFSCKMLTPRHCTGNCSFKPPLLP
Take B1: the binding result is on record as “binds”.
